These are yes or no findings as the source states them, for the method shown.
Biological target: T1, FLAG-XPA (human, UniProt P23025 1-273)
T1 construct: XPA protein, human; also called purified recombinant XPA
Assay: pull-down; FLAG-XPA (0.5 µg) immobilised on anti-DDDDK-tag magnetic beads; centrin-2 in buffer B, on ice 1 h; elution with FLAG peptide; immunoblot; no XPC/RAD23B; both purified

Amino acid sequences for entries named in this document (tags omitted).
UniProt P23025: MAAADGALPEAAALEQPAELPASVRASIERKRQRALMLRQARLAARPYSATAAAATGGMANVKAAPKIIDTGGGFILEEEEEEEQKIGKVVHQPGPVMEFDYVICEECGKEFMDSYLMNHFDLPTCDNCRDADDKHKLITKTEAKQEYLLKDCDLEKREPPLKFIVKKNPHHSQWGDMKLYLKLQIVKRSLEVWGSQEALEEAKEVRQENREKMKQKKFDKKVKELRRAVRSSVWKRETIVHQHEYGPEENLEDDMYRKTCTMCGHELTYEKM

B1: centrin-2 C domain, detached from the GST tag (domain or fragment, human, UniProt P41208 94-172, looked up)
chain: TQKMSEKDTKEEILKAFKLFDDDETGKISFKNLKRVAKELGENLTDEELQEMIDEADRDGDGEVSEQEFLRIMKKTSLY
notes: centrin-2, human, carboxyl-terminal (C) domain, residues 94-172; also called the C domain alone; source: E. coli BL21 (DE3), purified (GSTrap FF, HiTrap Phenyl FF), GST removed with PreScission protease; not shown: GST, N-terminal, cleaved
binding: no binding

Source: publication PMC3737541, “Structure-function analysis of the EF-hand protein centrin-2 for its intracellular localization and nucleotide excision repair” (Nucleic Acids Research, 2013)
